Source: the supplement of paper PMC11006884
Only a part is listed here, and it is no random draw.

By UniProt entry, the sequences of proteins in these tests, tags left out. Where a name states a change or a piece, a line headed by the entry shows the natural chain unless it says otherwise.
UniProt Q9Y2I1: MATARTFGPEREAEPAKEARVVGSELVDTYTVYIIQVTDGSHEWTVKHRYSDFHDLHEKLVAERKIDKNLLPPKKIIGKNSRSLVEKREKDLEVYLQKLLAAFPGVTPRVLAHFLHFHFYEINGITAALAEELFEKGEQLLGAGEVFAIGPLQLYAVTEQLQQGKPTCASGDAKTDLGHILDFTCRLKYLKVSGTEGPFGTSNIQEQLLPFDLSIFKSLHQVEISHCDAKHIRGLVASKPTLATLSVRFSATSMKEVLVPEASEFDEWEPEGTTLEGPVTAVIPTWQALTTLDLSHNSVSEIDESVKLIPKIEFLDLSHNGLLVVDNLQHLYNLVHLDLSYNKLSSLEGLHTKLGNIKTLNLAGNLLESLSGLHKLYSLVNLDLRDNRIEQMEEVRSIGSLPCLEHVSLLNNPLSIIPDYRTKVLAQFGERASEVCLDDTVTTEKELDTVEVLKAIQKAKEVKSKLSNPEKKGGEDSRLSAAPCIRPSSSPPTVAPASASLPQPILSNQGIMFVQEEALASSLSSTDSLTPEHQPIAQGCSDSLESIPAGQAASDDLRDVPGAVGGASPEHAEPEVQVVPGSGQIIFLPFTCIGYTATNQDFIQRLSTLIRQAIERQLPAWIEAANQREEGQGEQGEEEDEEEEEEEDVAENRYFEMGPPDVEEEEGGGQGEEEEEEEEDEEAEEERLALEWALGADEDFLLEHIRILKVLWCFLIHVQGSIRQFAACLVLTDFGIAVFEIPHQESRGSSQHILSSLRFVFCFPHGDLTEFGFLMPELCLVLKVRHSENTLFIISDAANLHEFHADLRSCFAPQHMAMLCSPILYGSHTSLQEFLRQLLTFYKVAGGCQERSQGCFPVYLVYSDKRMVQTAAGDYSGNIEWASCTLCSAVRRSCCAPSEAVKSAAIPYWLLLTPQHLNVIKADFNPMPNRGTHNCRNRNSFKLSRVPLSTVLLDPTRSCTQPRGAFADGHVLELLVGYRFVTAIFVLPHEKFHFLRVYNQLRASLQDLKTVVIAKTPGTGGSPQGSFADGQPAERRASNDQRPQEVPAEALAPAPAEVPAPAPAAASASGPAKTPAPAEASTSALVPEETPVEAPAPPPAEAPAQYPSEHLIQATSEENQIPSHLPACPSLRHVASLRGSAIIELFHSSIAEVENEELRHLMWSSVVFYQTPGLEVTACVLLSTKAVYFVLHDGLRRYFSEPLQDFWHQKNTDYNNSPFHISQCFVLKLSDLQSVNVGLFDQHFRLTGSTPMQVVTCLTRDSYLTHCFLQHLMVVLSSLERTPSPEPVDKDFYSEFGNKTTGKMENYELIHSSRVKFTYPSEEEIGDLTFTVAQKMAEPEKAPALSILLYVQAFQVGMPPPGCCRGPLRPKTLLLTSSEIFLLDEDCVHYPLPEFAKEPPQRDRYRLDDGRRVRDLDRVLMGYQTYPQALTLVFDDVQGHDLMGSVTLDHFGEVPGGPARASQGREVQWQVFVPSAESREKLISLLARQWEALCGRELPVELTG
UniProt Q9UL15: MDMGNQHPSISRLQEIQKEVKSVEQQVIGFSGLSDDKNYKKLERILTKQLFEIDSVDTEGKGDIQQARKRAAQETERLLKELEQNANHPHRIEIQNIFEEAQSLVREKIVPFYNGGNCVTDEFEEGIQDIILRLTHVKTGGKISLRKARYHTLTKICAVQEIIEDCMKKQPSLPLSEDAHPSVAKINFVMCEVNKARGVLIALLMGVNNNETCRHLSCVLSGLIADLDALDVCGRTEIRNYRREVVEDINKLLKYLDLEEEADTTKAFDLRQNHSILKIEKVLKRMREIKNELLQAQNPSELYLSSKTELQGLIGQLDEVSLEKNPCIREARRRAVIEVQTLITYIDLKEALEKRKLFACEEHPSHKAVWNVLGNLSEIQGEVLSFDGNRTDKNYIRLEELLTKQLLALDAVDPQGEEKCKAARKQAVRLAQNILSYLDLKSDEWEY
UniProt Q9ULT8: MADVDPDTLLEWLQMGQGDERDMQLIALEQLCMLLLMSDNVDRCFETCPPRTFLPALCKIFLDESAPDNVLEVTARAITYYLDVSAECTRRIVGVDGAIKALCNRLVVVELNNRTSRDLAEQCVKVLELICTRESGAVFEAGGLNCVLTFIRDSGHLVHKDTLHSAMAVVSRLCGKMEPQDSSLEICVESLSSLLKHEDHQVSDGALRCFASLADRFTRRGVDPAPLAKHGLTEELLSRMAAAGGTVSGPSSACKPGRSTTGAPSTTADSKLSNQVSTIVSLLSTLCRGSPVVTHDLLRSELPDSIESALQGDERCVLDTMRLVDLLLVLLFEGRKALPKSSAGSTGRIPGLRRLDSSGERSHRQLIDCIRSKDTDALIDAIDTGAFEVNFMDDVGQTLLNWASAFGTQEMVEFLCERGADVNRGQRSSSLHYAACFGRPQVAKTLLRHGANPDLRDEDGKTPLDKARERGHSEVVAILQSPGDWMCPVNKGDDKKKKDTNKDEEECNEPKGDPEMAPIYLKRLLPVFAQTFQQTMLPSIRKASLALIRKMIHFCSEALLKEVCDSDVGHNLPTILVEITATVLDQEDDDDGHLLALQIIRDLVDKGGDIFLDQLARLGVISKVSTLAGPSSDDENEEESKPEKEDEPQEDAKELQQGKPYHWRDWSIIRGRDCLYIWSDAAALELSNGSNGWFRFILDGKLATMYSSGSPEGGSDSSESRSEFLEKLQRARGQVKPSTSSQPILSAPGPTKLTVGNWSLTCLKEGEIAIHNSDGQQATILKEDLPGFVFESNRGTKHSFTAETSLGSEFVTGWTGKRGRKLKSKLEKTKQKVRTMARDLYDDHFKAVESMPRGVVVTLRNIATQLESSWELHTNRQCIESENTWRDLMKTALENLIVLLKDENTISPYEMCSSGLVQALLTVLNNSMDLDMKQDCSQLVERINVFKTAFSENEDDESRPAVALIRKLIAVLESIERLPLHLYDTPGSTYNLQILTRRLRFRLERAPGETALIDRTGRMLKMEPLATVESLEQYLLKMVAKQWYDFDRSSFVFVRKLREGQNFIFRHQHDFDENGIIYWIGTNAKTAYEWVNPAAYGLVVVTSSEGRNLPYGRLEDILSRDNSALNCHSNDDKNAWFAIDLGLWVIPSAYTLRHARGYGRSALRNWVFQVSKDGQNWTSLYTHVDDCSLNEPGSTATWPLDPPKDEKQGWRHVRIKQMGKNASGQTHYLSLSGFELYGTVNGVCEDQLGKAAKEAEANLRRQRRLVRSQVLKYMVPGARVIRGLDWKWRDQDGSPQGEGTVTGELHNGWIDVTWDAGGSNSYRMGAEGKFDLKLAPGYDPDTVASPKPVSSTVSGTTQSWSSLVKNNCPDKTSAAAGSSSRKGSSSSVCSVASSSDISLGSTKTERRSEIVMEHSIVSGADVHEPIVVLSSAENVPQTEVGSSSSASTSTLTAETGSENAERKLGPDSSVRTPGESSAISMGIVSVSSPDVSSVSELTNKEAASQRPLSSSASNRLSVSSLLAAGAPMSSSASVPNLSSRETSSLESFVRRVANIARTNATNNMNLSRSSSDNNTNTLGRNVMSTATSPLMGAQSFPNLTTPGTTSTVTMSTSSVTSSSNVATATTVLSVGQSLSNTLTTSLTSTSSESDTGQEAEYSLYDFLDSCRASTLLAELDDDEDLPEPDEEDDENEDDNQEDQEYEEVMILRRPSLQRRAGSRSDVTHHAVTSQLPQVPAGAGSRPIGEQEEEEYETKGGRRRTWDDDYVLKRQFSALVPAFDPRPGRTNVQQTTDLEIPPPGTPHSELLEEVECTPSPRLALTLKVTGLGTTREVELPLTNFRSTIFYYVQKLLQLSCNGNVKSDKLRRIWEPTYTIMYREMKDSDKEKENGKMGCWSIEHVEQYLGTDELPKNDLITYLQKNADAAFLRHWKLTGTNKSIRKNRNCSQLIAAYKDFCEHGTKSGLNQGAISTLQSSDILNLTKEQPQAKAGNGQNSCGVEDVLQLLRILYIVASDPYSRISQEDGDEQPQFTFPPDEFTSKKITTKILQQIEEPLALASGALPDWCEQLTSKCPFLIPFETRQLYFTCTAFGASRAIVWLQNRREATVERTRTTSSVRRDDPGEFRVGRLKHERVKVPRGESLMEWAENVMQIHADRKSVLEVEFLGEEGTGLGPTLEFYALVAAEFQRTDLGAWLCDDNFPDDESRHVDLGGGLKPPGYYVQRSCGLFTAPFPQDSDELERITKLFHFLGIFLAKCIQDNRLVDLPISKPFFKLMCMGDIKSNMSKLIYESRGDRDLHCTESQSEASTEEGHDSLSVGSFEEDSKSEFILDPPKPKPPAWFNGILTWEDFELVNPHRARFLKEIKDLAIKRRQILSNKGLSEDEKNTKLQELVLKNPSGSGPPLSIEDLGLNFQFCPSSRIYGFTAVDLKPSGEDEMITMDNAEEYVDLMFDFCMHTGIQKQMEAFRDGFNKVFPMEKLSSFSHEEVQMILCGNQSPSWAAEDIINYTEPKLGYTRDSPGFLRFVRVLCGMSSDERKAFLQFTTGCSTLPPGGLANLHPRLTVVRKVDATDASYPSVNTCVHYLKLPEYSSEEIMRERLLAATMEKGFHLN
UniProt Q9Y2L1: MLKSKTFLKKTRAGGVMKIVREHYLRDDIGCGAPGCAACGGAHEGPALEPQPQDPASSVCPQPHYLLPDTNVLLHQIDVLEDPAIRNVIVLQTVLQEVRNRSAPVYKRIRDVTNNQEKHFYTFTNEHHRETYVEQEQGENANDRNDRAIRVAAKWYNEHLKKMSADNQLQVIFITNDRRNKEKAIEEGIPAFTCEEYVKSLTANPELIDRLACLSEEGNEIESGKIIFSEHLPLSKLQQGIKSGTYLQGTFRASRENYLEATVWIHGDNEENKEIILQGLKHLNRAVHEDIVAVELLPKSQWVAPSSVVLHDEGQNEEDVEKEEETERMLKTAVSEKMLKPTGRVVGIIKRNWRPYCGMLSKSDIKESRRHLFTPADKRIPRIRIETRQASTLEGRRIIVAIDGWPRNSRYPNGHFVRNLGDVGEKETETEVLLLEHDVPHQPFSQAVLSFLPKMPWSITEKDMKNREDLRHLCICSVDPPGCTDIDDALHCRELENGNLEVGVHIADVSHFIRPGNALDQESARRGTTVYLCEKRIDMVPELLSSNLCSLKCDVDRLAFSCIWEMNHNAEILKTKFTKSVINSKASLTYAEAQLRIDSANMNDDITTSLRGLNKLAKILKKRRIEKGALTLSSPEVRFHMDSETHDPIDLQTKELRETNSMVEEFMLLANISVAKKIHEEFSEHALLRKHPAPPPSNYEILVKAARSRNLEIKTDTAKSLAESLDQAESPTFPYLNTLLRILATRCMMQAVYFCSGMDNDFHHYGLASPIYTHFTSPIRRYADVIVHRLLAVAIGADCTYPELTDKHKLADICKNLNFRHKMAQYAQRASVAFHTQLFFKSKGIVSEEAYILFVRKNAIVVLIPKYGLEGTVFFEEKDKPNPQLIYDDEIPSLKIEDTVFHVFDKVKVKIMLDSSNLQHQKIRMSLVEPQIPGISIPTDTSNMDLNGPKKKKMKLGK
UniProt Q9UQ80: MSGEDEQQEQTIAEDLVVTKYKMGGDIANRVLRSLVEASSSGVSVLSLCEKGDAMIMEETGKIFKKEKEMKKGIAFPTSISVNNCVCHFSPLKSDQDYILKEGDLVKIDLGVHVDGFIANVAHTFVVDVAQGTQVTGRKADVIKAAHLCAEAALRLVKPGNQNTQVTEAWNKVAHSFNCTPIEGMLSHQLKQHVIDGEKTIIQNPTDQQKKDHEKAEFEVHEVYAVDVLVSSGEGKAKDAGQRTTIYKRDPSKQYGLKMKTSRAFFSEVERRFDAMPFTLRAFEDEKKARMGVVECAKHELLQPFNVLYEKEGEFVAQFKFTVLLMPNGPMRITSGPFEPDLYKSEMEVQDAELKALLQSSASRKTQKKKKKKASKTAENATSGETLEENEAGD
UniProt Q9Y3D2: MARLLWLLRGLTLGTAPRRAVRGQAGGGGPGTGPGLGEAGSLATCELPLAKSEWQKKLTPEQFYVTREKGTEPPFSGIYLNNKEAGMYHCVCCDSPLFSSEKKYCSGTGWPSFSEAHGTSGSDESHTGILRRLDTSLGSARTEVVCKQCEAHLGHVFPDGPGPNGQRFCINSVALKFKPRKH
UniProt Q9UJU6: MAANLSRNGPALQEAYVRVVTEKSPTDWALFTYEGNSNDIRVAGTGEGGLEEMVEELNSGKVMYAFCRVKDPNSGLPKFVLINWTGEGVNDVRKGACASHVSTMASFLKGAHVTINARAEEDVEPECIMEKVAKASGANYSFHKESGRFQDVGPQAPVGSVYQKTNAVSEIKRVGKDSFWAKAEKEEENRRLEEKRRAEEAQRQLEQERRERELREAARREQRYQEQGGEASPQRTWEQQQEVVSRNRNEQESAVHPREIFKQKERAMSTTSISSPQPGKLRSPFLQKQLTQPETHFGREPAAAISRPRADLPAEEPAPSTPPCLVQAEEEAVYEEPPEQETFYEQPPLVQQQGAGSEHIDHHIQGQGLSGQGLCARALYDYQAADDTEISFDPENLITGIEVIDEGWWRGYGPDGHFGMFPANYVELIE

compound: COC(=O)C#Cc1ccccc1 [methyl 3-phenylpropiolate]; assay: log2 ratio of iodoacetamide-alkyne labeling of the cysteine site, DMSO over compound (competition); higher = stronger covalent engagement of the cysteine by the compound, active = 1 or more; settings: 500 µM; treatment time 1 h; system: HEK293T cell lysate
Outline: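 Three replicates, each with duplicate channels, were prepared from HEK293T lysate (2 mg/mL) treated with vehicle or electrophile at 500 µM for 1 h at ambient temperature. Iodoacetamide alkyne was then applied for 1 h, and samples were clicked to sCIP-TMT reagents, pooled, trypsin-digested overnight at 37 °C, enriched on streptavidin, acid-eluted and analysed on Orbitrap Eclipse LC-MS/MS with FAIMS, with FragPipe quantification. The log2 competition ratio per cysteine is the mean control-channel divided by the mean compound-channel reporter intensity. Cysteines quantified in only one replicate were left out.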

log2 ratio of iodoacetamide-alkyne labeling, inactive:
SAP30BP C172 (UniProt Q9UHR5) 0.146
NISCH C436 (UniProt Q9Y2I1) 0.294
BAG5 C213 (UniProt Q9UL15) -0.128
UFC1 C116 (UniProt Q9Y3C8) 0.115
XPO7 C15 (UniProt Q9UIA9) -0.00361
NISCH C185 (UniProt Q9Y2I1) 0.0959
MRPS16 C26 (UniProt Q9Y3D3) 0.271
RRP7A C82 (UniProt Q9Y3A4) 0.831
SAMHD1 C341 (UniProt Q9Y3Z3) 0.323
UniProt Q9Y2K2_C223 0.545
HECTD1 C436 (UniProt Q9ULT8) -0.0217
SRRM2 C872 (UniProt Q9UQ35) 0.645
CIZ1 C252 (UniProt Q9ULV3) 0.198
DIS3 C194 (UniProt Q9Y2L1) 0.154
HECTD1 C2195 (UniProt Q9ULT8) 0.443
ANAPC7 C131 (UniProt Q9UJX3) 0.289
TTF2 C785 (UniProt Q9UNY4) 0.282
MBD1 C57 (UniProt Q9UIS9) 0.0108
TBC1D24 C89 (UniProt Q9ULP9) -0.0393
NCKAP1 C599 (UniProt Q9Y2A7) -0.0856
ACIN1 C1052 (UniProt Q9UKV3) -0.0441
PA2G4 C179 (UniProt Q9UQ80) -0.273
UniProt Q9UK61_C538 0.279
INTS6 C783 (UniProt Q9UL03) 0.438
PLAA C605 (UniProt Q9Y263) 0.176
EXOC6B C68 (UniProt Q9Y2D4) -0.0384
PRR12 C173 (UniProt Q9ULL5) 0.618
NISCH C403 (UniProt Q9Y2I1) 0.119
PRPF19 C298 (UniProt Q9UMS4) 0.134
MSRB2 C45 (UniProt Q9Y3D2) -0.132
HECTD1 C1368 (UniProt Q9ULT8) 0.751
HECTD1 C1389 (UniProt Q9ULT8) 0.795
GIT1 C576 (UniProt Q9Y2X7) 0.845
NUDT5 C76 (UniProt Q9UKK9) 0.157
MBD1 C525 (UniProt Q9UIS9) 0.358
DBNL C127 (UniProt Q9UJU6) 0.245
DCTN4 C258 (UniProt Q9UJW0) 0.483

Taken from above for reference:
log2 ratio of iodoacetamide-alkyne labeling, inactive:
NISCH C185 (UniProt Q9Y2I1) 0.0959
MRPS16 C26 (UniProt Q9Y3D3) 0.271
